Test results from the supplement of paper PMC10849652.
This is one part of the list. Residues, ends and D or L forms follow the SMILES beside them. *: point of attachment. Cbz = O=C(OCc1ccccc1)*

Amino acid sequences for entries named in this document (tags omitted). A change or cut given only in a name is not applied to a line headed by its entry.
UniProt P68871: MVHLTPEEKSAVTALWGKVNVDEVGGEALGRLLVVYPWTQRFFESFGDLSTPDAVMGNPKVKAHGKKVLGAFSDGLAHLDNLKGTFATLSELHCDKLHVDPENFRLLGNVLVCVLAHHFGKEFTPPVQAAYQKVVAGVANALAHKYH
UniProt Q15011: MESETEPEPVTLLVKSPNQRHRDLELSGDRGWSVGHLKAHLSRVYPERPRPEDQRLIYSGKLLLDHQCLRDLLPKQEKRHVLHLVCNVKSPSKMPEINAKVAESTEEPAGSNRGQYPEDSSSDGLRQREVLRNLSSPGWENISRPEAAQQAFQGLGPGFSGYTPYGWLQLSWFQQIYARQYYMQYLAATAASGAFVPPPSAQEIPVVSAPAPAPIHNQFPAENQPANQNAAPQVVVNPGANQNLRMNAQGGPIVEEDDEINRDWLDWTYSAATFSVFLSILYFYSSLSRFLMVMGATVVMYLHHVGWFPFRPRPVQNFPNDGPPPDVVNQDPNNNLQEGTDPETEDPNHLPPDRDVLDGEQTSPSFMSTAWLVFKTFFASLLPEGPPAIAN
UniProt Q969S8: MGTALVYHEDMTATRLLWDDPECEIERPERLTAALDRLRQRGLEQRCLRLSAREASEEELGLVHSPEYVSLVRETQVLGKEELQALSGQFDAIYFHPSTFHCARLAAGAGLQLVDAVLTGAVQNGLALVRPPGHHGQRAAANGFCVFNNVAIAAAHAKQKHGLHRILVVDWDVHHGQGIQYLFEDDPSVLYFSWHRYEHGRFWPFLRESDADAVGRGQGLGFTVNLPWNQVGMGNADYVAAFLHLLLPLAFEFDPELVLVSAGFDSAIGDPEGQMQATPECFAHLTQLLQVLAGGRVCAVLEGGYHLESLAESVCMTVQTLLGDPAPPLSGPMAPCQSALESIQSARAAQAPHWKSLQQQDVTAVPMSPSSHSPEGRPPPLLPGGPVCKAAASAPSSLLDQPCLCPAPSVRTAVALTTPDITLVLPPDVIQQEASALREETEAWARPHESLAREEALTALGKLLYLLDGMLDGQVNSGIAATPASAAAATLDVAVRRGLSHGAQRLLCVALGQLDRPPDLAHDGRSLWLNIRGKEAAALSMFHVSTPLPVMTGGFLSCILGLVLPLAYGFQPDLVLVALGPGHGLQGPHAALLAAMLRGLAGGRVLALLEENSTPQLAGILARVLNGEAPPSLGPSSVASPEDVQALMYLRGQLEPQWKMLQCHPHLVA
UniProt Q14469: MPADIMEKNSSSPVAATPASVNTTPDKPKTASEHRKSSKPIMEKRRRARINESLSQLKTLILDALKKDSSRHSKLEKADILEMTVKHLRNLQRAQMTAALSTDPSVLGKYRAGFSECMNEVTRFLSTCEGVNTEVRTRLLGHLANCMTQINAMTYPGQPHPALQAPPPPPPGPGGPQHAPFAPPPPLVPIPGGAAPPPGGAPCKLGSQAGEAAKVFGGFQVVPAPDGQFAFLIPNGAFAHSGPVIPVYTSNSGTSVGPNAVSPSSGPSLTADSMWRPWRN
UniProt Q68CZ6: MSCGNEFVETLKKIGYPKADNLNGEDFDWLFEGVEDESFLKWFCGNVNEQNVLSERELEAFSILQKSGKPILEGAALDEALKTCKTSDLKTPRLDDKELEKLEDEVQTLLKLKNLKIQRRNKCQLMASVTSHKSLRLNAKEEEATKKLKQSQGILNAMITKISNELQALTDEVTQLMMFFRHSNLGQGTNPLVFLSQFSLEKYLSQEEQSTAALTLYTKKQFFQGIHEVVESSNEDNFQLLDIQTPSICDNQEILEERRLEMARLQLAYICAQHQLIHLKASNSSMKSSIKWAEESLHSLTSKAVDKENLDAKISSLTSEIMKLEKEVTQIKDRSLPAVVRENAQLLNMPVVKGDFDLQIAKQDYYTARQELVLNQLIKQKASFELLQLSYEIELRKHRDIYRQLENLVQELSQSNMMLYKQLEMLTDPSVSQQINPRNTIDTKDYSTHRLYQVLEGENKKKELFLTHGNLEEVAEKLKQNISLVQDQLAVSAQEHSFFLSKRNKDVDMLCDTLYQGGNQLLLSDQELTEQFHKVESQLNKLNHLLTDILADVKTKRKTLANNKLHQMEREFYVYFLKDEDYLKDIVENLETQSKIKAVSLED
UniProt A2PYH4: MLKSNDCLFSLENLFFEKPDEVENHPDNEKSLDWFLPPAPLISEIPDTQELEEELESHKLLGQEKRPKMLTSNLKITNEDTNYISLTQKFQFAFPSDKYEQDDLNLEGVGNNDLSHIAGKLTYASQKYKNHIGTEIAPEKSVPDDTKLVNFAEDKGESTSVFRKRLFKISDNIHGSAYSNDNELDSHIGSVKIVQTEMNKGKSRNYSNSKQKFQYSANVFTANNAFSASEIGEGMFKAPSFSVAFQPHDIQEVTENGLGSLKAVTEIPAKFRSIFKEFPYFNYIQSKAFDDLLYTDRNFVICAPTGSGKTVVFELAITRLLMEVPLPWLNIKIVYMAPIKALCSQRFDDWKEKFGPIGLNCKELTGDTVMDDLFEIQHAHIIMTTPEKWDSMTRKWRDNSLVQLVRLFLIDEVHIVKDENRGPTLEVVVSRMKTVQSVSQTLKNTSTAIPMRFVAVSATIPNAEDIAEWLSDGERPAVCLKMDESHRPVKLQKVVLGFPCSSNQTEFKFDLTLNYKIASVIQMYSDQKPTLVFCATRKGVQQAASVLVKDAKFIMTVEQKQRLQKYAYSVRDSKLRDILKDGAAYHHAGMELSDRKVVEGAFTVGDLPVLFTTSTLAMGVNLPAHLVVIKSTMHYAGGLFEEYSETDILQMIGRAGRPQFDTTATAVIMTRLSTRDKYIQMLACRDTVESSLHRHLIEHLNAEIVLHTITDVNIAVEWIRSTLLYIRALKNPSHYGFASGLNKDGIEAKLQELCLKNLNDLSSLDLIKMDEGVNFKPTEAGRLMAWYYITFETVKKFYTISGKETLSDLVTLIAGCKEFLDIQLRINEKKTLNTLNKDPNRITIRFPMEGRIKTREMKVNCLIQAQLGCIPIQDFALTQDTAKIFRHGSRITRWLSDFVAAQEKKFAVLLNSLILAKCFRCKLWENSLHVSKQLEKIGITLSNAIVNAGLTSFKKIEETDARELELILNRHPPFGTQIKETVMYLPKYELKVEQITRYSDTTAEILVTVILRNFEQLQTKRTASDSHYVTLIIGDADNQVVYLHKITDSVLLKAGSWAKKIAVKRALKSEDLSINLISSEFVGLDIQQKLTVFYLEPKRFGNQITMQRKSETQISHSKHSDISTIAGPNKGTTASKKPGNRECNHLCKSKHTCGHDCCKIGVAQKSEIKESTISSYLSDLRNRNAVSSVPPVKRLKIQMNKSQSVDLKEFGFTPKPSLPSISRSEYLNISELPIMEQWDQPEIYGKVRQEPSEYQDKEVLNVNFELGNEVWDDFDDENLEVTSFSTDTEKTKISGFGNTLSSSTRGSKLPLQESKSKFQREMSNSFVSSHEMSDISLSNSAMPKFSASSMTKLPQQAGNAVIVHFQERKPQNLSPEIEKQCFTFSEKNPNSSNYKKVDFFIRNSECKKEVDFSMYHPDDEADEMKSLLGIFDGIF
UniProt O95479: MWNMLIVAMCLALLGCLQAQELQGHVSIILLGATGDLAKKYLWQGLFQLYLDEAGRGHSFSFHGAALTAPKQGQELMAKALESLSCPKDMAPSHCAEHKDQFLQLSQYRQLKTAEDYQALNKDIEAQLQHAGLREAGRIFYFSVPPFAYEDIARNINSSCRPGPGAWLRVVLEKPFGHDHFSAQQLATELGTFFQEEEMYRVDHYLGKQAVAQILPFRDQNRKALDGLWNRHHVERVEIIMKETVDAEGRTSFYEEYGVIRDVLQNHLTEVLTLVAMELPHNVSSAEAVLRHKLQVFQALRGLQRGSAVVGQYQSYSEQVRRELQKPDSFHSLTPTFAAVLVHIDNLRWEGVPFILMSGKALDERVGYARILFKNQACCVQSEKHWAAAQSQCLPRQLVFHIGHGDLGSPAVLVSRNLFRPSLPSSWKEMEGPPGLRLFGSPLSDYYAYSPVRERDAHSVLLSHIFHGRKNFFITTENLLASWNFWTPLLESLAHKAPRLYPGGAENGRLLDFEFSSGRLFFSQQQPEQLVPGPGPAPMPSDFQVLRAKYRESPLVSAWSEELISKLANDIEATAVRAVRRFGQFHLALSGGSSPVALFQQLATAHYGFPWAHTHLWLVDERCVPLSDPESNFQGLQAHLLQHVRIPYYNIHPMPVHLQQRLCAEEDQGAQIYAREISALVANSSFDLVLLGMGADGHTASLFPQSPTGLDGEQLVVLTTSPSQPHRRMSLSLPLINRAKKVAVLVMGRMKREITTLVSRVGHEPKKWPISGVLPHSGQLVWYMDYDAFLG
UniProt Q8N3Z3: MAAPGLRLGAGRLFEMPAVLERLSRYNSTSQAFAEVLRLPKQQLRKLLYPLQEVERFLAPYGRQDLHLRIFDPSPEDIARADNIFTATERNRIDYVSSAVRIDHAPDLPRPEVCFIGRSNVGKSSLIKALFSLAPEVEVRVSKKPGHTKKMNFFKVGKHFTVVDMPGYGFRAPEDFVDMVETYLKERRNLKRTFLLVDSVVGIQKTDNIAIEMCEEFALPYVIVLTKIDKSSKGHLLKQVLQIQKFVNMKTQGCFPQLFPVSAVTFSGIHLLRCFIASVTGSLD
UniProt Q9NRZ9: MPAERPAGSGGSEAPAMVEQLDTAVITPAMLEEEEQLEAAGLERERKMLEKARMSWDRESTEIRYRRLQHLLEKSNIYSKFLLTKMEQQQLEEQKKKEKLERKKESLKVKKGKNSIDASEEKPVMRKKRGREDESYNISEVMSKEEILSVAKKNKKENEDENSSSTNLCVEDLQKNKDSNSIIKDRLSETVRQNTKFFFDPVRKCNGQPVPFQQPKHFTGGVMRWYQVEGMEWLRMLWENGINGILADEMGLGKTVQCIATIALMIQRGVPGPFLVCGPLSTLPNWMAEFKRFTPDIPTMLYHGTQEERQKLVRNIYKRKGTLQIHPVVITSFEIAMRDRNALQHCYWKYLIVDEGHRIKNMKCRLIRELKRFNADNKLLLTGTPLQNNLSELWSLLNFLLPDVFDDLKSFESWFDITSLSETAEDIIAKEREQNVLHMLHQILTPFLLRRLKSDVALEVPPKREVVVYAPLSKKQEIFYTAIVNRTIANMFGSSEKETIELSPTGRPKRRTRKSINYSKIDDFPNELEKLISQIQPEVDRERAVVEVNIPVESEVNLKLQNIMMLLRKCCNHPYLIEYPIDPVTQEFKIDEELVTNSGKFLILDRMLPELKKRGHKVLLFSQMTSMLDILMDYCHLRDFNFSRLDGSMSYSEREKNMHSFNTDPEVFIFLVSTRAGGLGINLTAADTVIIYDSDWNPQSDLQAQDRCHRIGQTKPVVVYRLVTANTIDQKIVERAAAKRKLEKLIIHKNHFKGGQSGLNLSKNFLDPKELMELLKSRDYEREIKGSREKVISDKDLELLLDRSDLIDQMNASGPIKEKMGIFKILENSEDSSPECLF
UniProt Q93099: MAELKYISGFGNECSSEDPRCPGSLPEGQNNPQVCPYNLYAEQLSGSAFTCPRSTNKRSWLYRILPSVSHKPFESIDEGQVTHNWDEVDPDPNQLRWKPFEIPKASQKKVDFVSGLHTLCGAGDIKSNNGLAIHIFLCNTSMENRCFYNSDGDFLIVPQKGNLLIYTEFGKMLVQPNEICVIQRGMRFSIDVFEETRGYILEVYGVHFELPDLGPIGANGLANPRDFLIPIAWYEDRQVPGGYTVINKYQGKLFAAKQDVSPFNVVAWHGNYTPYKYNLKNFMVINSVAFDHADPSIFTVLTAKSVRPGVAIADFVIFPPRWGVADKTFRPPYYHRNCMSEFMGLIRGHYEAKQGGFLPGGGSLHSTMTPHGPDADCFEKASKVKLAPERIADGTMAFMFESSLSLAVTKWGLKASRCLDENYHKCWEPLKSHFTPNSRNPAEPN
UniProt P42357: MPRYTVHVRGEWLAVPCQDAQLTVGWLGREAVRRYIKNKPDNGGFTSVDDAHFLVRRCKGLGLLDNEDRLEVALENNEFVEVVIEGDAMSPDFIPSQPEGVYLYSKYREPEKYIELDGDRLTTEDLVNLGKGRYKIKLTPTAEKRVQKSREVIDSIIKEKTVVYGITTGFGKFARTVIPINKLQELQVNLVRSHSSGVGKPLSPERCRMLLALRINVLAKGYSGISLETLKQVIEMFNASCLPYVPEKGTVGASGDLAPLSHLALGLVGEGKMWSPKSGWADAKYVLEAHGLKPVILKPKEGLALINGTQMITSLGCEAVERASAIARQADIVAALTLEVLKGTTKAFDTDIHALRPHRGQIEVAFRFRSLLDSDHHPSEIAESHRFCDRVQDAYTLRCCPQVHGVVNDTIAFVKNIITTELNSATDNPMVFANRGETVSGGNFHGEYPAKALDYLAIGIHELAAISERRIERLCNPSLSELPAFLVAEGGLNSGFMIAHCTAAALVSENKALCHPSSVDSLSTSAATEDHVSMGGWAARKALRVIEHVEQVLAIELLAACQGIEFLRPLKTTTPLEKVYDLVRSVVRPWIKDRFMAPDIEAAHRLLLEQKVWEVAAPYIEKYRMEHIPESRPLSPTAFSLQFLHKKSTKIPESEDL

How the values were obtained:
Test in all cases: log2 fold change, soluble protein after heating vs DMSO (PISA); higher = thermal stabilisation; K562 cells, 10 uM, 30 min; active = over 0.2 and 3.5 SD of the protein, either way, in both replicates (recomputed)
[1] = compound: C=CC(=O)N1CCC[C@@H](n2nc(-c3ccc(Oc4ccccc4)cc3)c3c(N)ncnc32)C1 [ibrutinib]
Summary of the method: (§1)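 K562 cells (2×10^6 cells/mL) were treated with 10 μM compound for 30 min, and aliquots were heated for 3 min over 48°C-58°C. Pooled aliquots were extracted in PBS with 0.5% NP-40 at 4°C, and the supernatant after 21,000xg for 90 min was measured by TMTpro 16plex LC-MS/MS with channel sums equalised. Reported thermal stability, relative to control samples and from duplicates, is a log2 fold change.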

[2] = compound: CC(C)(O)CC(=O)NCCn1ccc2ncnc(Nc3ccc(Oc4cccc(C(F)(F)F)c4)c(Cl)c3)c21
Summary of the method: as §1

[3] = compound: CC1=C(C(CC(=O)N1)C2=CC=C(C=C2)C(F)(F)F)C(=O)NC3=C(C=C4C(=C3)C=NN4)F
Summary of the method: as §1

[4] = compound: CC1=C(C2=C(C=C1)C(=O)C3=CC=CC=C3N2CCCN)C
Summary of the method: as §1

[5] = compound: CC1=C(C=C(C=C1)NC(=O)C2=CC(=CC=C2)C(C)(C)C#N)NC3=CC4=C(C=C3)N=CN(C4=O)C
Summary of the method: as §1

[6] = compound: CCCCN(Cc1ccc(C(=O)NO)cc1)C(=O)Nc1ccccc1 [Nexturastat A]
Summary of the method: as §1

[7] = compound: CCCc1cc(C)[nH]c(=O)c1CNC(=O)c1cc(-c2ccnc(N3CCN(C)CC3)c2)cc2c1cnn2C(C)C
Summary of the method: as §1

[8] = compound: CCN(CCCOc1ccc2c(Nc3cc(CC(=O)Nc4cccc(F)c4)[nH]n3)ncnc2c1)CCOP(=O)(O)O [barasertib]
Summary of the method: as §1

[9] = compound: CC(=O)c1cnc2ccc(-c3cc(Cl)c(O)c(Cl)c3)nc2c1N[C@H]1CC[C@H](CN(C)C)CC1
Summary of the method: as §1

[10] = compound: CC(C)C1=C2N=C(C=C(N2N=C1)NCC3=CC=CC=C3)NCCCCCCN
Summary of the method: as §1

[11] = compound: CCN(CC)Cc1ccc2cc(COC(=O)Nc3ccc(C(=O)NO)cc3)ccc2c1 [givinostat]
Summary of the method: as §1

[12] = compound: CC1=CC=C(C=C1)SC2=C3C=C(SC3=CN=C2)C(=O)N
Summary of the method: as §1

[13] = compound: CCCS(=O)(=O)Nc1ccc(F)c(C(=O)c2c[nH]c3ncc(Cl)cc23)c1F
Summary of the method: as §1

[14] = compound: C1COCCN1CCN2C3=CC=CC=C3N=C2NC(=O)C4=CC(=CC=C4)[N+](=O)[O-] [IRAK-1-4 Inhibitor I]
Summary of the method: as §1

[15] = compound: CC(C)N(C[C@H]1O[C@@H](n2cnc3c(N)ncnc32)[C@H](O)[C@@H]1O)[C@H]1C[C@@H](CCc2nc3cc(C(C)(C)C)ccc3[nH]2)C1 [pinometostat]
Summary of the method: as §1

[16] = compound: CC1=NC(=CC=C1)C2=C(N=C(N2)C(C)(C)C)C3=CC4=NC=CN=C4C=C3
Summary of the method: as §1

[17] = compound: CCCS(=O)(=O)Nc1ccc(F)c(C(=O)c2c[nH]c3ncc(-c4ccc(Cl)cc4)cc23)c1F [vemurafenib]
Summary of the method: as §1

[18] = compound: CC(C)(C)Cn1c(N)nc2ccc(-c3[nH]c(C(C)(C)C)nc3-c3ccc(F)cc3)nc21 [ralimetinib]
Summary of the method: as §1

[19] = compound: CC(C)C[C@@H](C=O)NC(=O)[C@H](CC(C)C)NC(=O)[C@H](CC(C)C)NC(=O)OCc1ccccc1
Summary of the method: as §1

[20] = compound: CC1=C(C=C(C=C1)NC(=O)C2=CC(=CC=C2)N(C)C)NC(=O)C3=CC=C(C=C3)O
Summary of the method: as §1

Measured: log2 fold change

HGF (UniProt P14210)
inactive: [1] -0.006 | [2] -0.018 | [3] 0.117 | [4] -0.389 | [5] -0.069 | [6] -0.044 | [7] -0.424 | [8] 0.049

HBB (UniProt P68871)
inactive: [9] -0.1 | [7] -0.082

HDAC5 isoform 3 (UniProt Q9UQL6)
inactive: [1] -0.007 | [9] -0.297 | [2] 0.033 | [10] 0.078 | [3] -0.004 | [4] 0.021 | [5] -0.064 | [6] 0.131 | [7] -0.161 | [11] 0.074 | [8] -0.144

HBZ, A0A494C057
inactive: [1] 0.284 | [10] -0.054 | [7] 0.051 | [11] 0.109 | [8] 0.013

HACD2 (UniProt Q6Y1H2)
inactive: [10] 0.006 | [4] 0.119 | [12] -0.023 | [13] 0.059 | [7] 0.062 | [11] -0.083

GSPT1 isoform 2 (UniProt P15170)
inactive: [3] -0.14

HECTD4 (UniProt Q9Y4D8)
inactive: [14] 0.087 | [10] -0.007 | [15] 0.212 | [16] 0.127 | [17] 0.011 | [7] 0.049 | [11] 0.106

HDAC8 (UniProt Q9BY41)
inactive: [2] -0.219 | [6] 0.993

HERPUD1 (UniProt Q15011)
inactive: [10] -0.007 | [4] -0.039 | [12] -0.026 | [17] 0.015 | [13] 0.058 | [7] -0.086 | [11] 0.042

GSTM3 (UniProt P21266)
inactive: [1] 0.066 | [9] -0.059 | [2] 0.046 | [10] 0.021 | [3] -0.048 | [4] 0.03 | [5] 0.054 | [12] 0.004 | [6] 0.087 | [17] 0.016 | [13] 0.128 | [7] 0.051 | [11] 0.028 | [8] 0.054

GTF2H4 (UniProt Q92759)
inactive: [9] -0.053 | [2] 0.079 | [3] 0.02 | [4] 0.054 | [5] 0.038 | [12] -0.007 | [6] -0.241 | [17] -0.238 | [13] -0.04 | [7] -0.501

GTPBP4 (UniProt Q9BZE4)
inactive: [1] 0.025 | [9] 0.093 | [18] 0.145 | [2] 0.043 | [19] 0.318 | [3] 0.053 | [4] -0.05 | [5] -0.081 | [20] -0.055 | [6] 0.308 | [17] 0.026 | [7] 0.016 | [8] -0.078

GTF2H1 (UniProt P32780)
inactive: [14] -0.126 | [18] 0.071 | [10] -0.12 | [19] 0.081 | [15] 0.164 | [20] -0.191 | [16] -0.032 | [17] -0.316 | [7] 0.151 | [11] 0.02

GTF3C3 (UniProt Q9Y5Q9)
inactive: [14] -0.144 | [1] -0.122 | [10] 0.006 | [15] -0.041 | [3] 0.234 | [4] 0.051 | [12] 0.149 | [16] -0.243 | [13] -0.029 | [7] 0.241 | [11] -0.034 | [8] 0.06

HCFC1 (UniProt P51610)
inactive: [14] -0.016 | [18] -0.085 | [10] 0.074 | [19] 0.063 | [15] 0.031 | [3] 0.003 | [4] 0.022 | [5] -0.041 | [20] 0.081 | [16] -0.088 | [17] -0.066 | [7] 0.006 | [11] 0.153

HEXIM2 (UniProt Q96MH2)
inactive: [14] -0.039 | [2] 0.148 | [15] -0.092 | [16] -0.114 | [6] 0.036 | [17] -0.082

HDAC10 (UniProt Q969S8)
inactive: [1] -0.01 | [9] 0.137 | [18] 0.006 | [10] -0.124 | [19] -0.026 | [4] -0.287 | [20] 0.027 | [12] -0.001 | [17] 0.231 | [13] 0.046 | [7] 0.056 | [11] 0.153 | [8] -0.117

HES1 (UniProt Q14469)
inactive: [14] -0.262 | [9] -0.116 | [10] -0.019 | [15] 0.095 | [4] 0.076 | [16] 0.07 | [7] -0.07 | [11] 0.03

Random excerpt: 3 records from the list
HEXIM2 (UniProt Q96MH2)
inactive: [14] -0.039 | [2] 0.148 | [15] -0.092 | [16] -0.114 | [6] 0.036 | [17] -0.082

GTF3C3 (UniProt Q9Y5Q9)
inactive: [14] -0.144 | [1] -0.122 | [10] 0.006 | [15] -0.041 | [3] 0.234 | [4] 0.051 | [12] 0.149 | [16] -0.243 | [13] -0.029 | [7] 0.241 | [11] -0.034 | [8] 0.06

HCFC1 (UniProt P51610)
inactive: [14] -0.016 | [18] -0.085 | [10] 0.074 | [19] 0.063 | [15] 0.031 | [3] 0.003 | [4] 0.022 | [5] -0.041 | [20] 0.081 | [16] -0.088 | [17] -0.066 | [7] 0.006 | [11] 0.153

Continuation:

H3-3A (UniProt P84243)
inactive: [1] -0.016 | [10] -0.07 | [5] -0.205 | [12] 0.078 | [17] 0.149 | [13] 0.102 | [7] 0.118 | [11] 0.267 | [8] 0.101
active: [4] 0.656

HAUS7 isoform 2 (UniProt Q99871)
inactive: [9] 0.141 | [18] 0.214 | [19] 0.176 | [20] 0.085 | [17] -0.094

HAUS3 (UniProt Q68CZ6)
inactive: [14] -0.084 | [9] -0.055 | [18] 0.214 | [2] 0.015 | [10] -0.56 | [19] 0.172 | [15] 0.272 | [4] -0.007 | [20] -0.012 | [12] 0.049 | [16] -0.121 | [6] 0.345 | [17] -0.005 | [13] 0.039 | [7] 0.171 | [11] 0.224

HAUS4 (UniProt Q9H6D7)
inactive: [1] 0.103 | [9] -0.107 | [18] 0.112 | [2] 0.246 | [19] 0.139 | [4] 0.048 | [5] -0.143 | [20] 0.003 | [12] 0.084 | [6] -0.061 | [17] -0.049 | [13] 0.012 | [7] -0.269 | [11] 0.08 | [8] -0.16
active: [10] -0.51

HFM1 (UniProt A2PYH4)
inactive: [1] -0.523 | [12] 0.015 | [13] 0.31 | [8] -0.27

H3C1 (UniProt P68431)
inactive: [18] -0.137 | [19] -0.099 | [20] -0.1

GZF1 (UniProt Q9H116)
inactive: [9] 0.152 | [5] -0.12 | [17] -0.529

H6PD (UniProt O95479)
inactive: [9] 0.041 | [18] -0.122 | [2] 0.177 | [10] -0.05 | [19] -0.027 | [3] -0.168 | [4] 0.017 | [5] -0.017 | [20] 0.144 | [12] -0.226 | [6] 0.105 | [17] -0.144 | [13] -0.228 | [7] -0.037 | [11] 0

GTPBP8 (UniProt Q8N3Z3)
inactive: [14] -0.078 | [10] -0.17 | [15] 0.015 | [3] -0.031 | [4] 0.281 | [12] -0.089 | [16] 0.086 | [17] -0.095 | [13] 0.008 | [11] -0.014

GUF1 (UniProt Q8N442)
inactive: [14] -0.004 | [9] 0.065 | [18] -0.025 | [10] -0.041 | [19] 0.011 | [15] 0.048 | [3] -0.08 | [4] 0.35 | [5] 0.241 | [20] -0.043 | [12] 0.08 | [16] 0.029 | [17] 0.014 | [13] 0.055 | [7] -0.011 | [11] -0.047

GYG2 (UniProt O15488)
inactive: [10] -0.174 | [7] -0.139 | [11] 0.033

HELLS (UniProt Q9NRZ9)
inactive: [1] -0.111 | [2] 0.184 | [6] 0.199 | [8] -0.003

HBD (UniProt E9PEW8)
inactive: [10] 0.127 | [3] -0.069 | [7] -0.063 | [11] 0.053

HABP4 (UniProt Q5JVS0)
inactive: [1] -0.25 | [18] -0.039 | [2] -0.126 | [10] 0.222 | [19] 0.178 | [20] 0.089 | [6] 0.314 | [11] -0.013 | [8] -0.028

HAUS8 (UniProt Q9BT25)
inactive: [9] 0.232 | [18] 0.255 | [19] 0.137 | [3] 0.098 | [20] 0.365 | [12] -0.064 | [17] -0.496 | [13] -0.168 | [7] 0.114

HAUS2 (UniProt Q9NVX0)
inactive: [9] 0.083 | [10] -0.179 | [12] -0.034 | [13] 0.269 | [7] 0.139 | [11] 0.118

HGD (UniProt Q93099)
inactive: [2] 0.023 | [5] -0.081 | [6] 0.05

GSTA1 (UniProt P08263)
inactive: [1] 0.1 | [2] -0.139 | [3] -0.113 | [4] 0.081 | [5] -0.123 | [6] 0.01 | [17] 0.111 | [8] 0.103

HAL (UniProt P42357)
inactive: [9] -0.404 | [2] 0.363 | [3] -0.753 | [4] 0.954 | [5] -0.109 | [12] 0.01 | [6] 0.218 | [17] 1.01 | [13] 0.022 | [7] 0.361

HACE1 (UniProt Q8IYU2)
inactive: [10] -0.178 | [4] 0.089 | [11] 0.086
